Laboratory results as given in patent publication US20210186982A1, “METHODS AND COMPOSITIONS FOR TREATING MELANOMA” (UNIVERSITE NICE SOPHIA ANTIPOLIS, priority 2017, published 2021).
For at least one compound, name, drawing or mass did not settle the structure.

Test system: melanoma cells
Assay: Cell cycle analysis by flow cytometry (PI)
Assay type: cell-based, human
Settings: comparison with b-AP15

CCCS(=O)(=O)Nc1ccc(F)c(C(=O)c2c[nH]c3ncc(-c4ccc(Cl)cc4)cc23)c1F [Vemurafenib]
cell cycle arrest: completely arrested cells in the G0/G1 phase of the cell cycle
